In paper PMC11898282:
These are yes or no findings as the source states them, for the method shown. In cells and extracts the contact can be indirect. These calls come from enrichment with a bait or labelling near it, and not all partners need be listed. Where a sequence is shown, tags or fusion partners need not be part of it.

Sequences of proteins named here, by UniProt entry; tags and fusion partners are left off.
UniProt P67809: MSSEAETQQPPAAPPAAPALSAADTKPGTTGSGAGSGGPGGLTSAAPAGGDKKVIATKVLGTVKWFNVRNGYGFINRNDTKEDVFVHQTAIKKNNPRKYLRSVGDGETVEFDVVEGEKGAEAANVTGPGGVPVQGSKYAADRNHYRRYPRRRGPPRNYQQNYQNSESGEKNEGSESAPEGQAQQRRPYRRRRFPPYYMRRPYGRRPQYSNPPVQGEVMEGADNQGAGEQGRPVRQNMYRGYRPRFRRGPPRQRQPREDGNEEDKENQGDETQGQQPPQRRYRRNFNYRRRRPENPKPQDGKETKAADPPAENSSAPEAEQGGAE

Target: T1, Flag-tagged TMBIM1 (transmembrane BAX inhibitor motif-containing 1) (human) (UniProt Q969X1)
T1 sequence: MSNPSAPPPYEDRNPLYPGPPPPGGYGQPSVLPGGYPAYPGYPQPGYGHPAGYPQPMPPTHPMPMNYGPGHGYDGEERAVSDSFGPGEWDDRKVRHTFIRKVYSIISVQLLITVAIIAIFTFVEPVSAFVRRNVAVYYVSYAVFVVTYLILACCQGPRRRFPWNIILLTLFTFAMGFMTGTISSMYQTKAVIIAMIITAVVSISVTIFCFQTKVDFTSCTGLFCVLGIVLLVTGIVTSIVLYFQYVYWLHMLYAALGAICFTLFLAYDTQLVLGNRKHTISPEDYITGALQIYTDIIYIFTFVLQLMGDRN
Test: affinity purification with mass spectrometry; IP with anti-Flag antibody from lysate of CFPAC-1 cells stably overexpressing Flag-TMBIM1, then LC-MS

Substance: Y box binding protein 1 (YBX1) (from UniProt P67809 1-324)
- binding: binds
